These are yes or no findings as the source states them, for the method shown. In cells and extracts the contact can be indirect. Some binding calls cover weakened binding; strength is not graded here.
Assays:
[1] = target: CXCR4 (pEnCMV-3× Flag vector) (UniProt P61073); assay: co-IP; NGAL and CXCR4 co-expressed in HEK293T cells; 48 h after transfection lysates immunoprecipitated with protein A/G beads conjugated with CXCR4 or NGAL antibody, immunoblot with the other antibody; IgG as negative control
[2] = target: CXCR4 (pEnCMV-3× Flag vector) (UniProt P61073); assay: co-IP; HEK293T cells expressing only CXCR4 co-cultured with recombinant human NGAL (rhNGAL); lysates immunoprecipitated with protein A/G beads (CXCR4 or NGAL antibody), immunoblot with the other antibody; IgG as negative control; only the binder purified

By UniProt entry, the sequences of proteins in these tests, tags left out. Residues count along the entry.
UniProt P61073: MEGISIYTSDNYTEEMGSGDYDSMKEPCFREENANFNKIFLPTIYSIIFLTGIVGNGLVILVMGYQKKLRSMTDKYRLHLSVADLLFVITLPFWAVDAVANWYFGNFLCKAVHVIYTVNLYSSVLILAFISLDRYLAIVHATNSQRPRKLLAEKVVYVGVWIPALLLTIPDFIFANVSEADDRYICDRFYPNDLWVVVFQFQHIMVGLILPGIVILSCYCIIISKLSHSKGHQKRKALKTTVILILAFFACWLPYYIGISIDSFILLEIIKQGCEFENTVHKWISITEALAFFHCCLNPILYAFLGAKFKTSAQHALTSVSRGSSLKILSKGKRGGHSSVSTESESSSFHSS
UniProt P80188, residues 21-198: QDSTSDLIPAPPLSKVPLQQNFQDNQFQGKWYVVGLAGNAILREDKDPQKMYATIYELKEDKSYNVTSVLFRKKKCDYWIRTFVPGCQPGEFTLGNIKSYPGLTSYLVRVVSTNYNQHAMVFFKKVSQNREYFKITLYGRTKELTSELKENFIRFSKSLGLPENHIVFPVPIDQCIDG

## NGAL with a strep tag (pEZT vector) (from UniProt P80188 21-198)
[1]
  binding: binds

## recombinant human NGAL (from UniProt P80188 21-198)
[2]
  binding: binds

From publication PMC10582023
